## Library screen at single concentrations

The chains behind the UniProt entries cited, without tags or fusion partners. Residues count along the entry.
UniProt Q4DA54, 1-478: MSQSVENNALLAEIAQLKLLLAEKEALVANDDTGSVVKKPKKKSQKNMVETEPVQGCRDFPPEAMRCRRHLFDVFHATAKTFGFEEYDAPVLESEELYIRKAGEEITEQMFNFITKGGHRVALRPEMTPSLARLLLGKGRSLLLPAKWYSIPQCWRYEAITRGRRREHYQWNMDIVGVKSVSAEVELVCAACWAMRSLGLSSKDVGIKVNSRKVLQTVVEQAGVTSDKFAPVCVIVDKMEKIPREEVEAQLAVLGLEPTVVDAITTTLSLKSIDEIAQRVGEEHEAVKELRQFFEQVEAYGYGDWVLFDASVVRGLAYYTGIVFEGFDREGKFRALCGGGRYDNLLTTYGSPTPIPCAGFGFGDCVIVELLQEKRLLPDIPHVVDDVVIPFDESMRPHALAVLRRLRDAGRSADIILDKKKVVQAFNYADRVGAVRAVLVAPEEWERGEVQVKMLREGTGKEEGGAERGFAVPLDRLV
UniProt Q8IDJ8, 1-583: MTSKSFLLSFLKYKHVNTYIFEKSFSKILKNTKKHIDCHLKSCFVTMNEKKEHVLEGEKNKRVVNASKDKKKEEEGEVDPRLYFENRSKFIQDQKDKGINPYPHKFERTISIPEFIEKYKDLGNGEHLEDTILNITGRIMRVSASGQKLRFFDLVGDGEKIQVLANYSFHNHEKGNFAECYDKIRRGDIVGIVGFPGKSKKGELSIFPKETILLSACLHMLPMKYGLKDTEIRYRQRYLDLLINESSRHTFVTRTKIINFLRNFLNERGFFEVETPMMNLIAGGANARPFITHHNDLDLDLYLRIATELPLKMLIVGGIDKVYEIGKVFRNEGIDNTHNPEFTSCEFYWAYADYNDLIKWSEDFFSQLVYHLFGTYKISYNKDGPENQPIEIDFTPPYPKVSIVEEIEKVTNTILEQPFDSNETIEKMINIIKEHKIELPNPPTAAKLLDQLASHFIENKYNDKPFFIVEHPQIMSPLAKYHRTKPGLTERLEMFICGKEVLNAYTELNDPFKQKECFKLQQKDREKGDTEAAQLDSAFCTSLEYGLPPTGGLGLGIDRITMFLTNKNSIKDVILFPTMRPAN

Values are the deposited “Percent Effect”, in %.
The controls that fix the scale are not given in the record; negative values are as filed.
The compounds are a random part of those screened.

TcHisRS: 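Enzyme assay of histidyl-tRNA synthetase; the read-out is not stated. Target: Histidine-tRNA ligase, Trypanosoma cruzi CL Brener (UniProt Q4DA54). Concentration: 30 µM. Higher reads as stronger inhibition (inferred: compounds with an IC50 in retests scored well above the rest). About 69,000 compounds were tested under these conditions; 0.045% (about 31) showed 50% or more at least once.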
PfKRS1: 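Lysine-tRNA ligase, Plasmodium falciparum 3D7 (UniProt Q8IDJ8). Enzyme assay of the cytosolic lysyl-tRNA synthetase in 384-well plates, read by luminescence. Compounds at 30 µM. Direction is inferred from only a few compounds that gave an IC50; most scored high, so higher reads as stronger inhibition. About 69,000 compounds were tested under these conditions; 0.071% (about 49) showed 50% or more at least once.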

compound	TcHisRS	PfKRS1
Cc1ccccc1CSc1nc(=O)n(CCO)c2c1CCC2	1.02%	4.888%
Cc1ccc(CN(C)C)cc1NC(=O)C1CC=CC1	4.459%	-0.1723%
CC(=O)N1CCN(C(=O)CNc2ccc3sccc3c2)CC1	10.34%	5.062%
CCc1nc(CN2CCCC(NCc3cccc(C(N)=O)c3)C2)no1 (stereo unspecified)	3.509%	-1.252%
N#Cc1cccc(S(=O)(=O)NC(=O)CCOCC(F)(F)F)c1	-4.762%	3.635%
CCN1CCN(C(=O)c2ccc3c(c2)CCCN3)[C@H]2CS(=O)(=O)C[C@H]21	1.149%	2.667%
CCC(=O)N1CCC(c2nc(O)c3c(n2)CN(C2CCCCC2)CC3)C1 (stereo unspecified)	5.319%	3.444%
CC(C)(O)CCc1ccc(C(=O)N2CCN(CCS(C)(=O)=O)CC2)cc1	12.66%	-1.663%
O=C(Nc1nc(-c2ccccc2)ns1)N1CC[C@H](O)C1	6.024%	6.926%
COC(=O)CCc1c(C)nn(-c2nc(C)cc(=O)[nH]2)c1C	3.261%	-3.519%
CCS(=O)(=O)c1ncc(CN(C)C)n1Cc1ccccc1	4.386%	0.08263%
O=C(O)c1cc2c(nc1-c1ccsc1)CCN(C(=O)C1CC1)CC2	3.797%	12.4%
O=C(NCCO)Nc1c(F)cccc1Oc1ccccc1	2.941%	2.161%
CCC(C)NC(=O)c1cc(S(=O)(=O)N2CCCC2)c(C)s1 (stereo unspecified)	3.714%	1.25%
CN(c1cccnn1)C1CCN(C(=O)Cc2c[nH]c3ccccc23)CC1	6.686%	-0.1059%
COCC1CC2(CCN(Cc3ccccn3)CC2)CN1c1ncccn1 (stereo unspecified)	2.941%	7.827%
Cc1nc(C)c(CC(=O)N2CCC(c3ccn4nccc4n3)CC2)s1	7.143%	0.7362%
O=C(C1CCC2(CCN(CC3CCOCC3)CC2)O1)N1CCCCO1 (stereo unspecified)	1.942%	1.56%
CC(=O)N1CC(c2ncn(C(C)C)n2)c2cc(C(=O)NC3CC3)ccc21 (stereo unspecified)	1.075%	-3.271%
Cc1cc(NC2CCN(c3ccccc3)C2)n2ncnc2n1 (stereo unspecified)	9.524%	4.919%
CCN(Cc1nc(COC)no1)Cc1cccnc1NC(=O)C(C)(C)C	2.89%	0.8018%
Cn1cccc1-c1cc(C(=O)N2CCCC2c2cccnc2)[nH]n1 (stereo unspecified)	2.479%	4.138%
Cc1cccc(N2CCC3(CCCC(=O)N3)CC2)n1	6.329%	4.257%
CCn1c(C)nnc1CN(C)C1CCN(CC2CCC2)C1 (stereo unspecified)	3.79%	-2.235%
c1ccc(N2CCC(OCC3CCCCO3)CC2)nc1 (stereo unspecified)	1.786%	3.906%
CCS(=O)(=O)N1CCN(C(=O)c2cnc3[nH]nc(C)c3c2)CC1	1.734%	1.019%
Cn1nnnc1SCCNC(=O)CC1CCc2ccccc21 (stereo unspecified)	-2.762%	-0.7545%
COc1coc(CN2CCCC(CCc3ccccc3F)C2)cc1=O (stereo unspecified)	2.463%	3.631%
Cc1cn2c(n1)CCC(NC(=O)c1nc(C)ncc1Cl)C2 (stereo unspecified)	1.132%	9.385%
CCCn1cc(C(=O)NCCCC(N)=O)c2ccccc21	5.882%	2.453%
Cn1c(NCC(O)c2ccc(Cl)cc2)c(C#N)c(=O)n(C)c1=O (stereo unspecified)	8%	0.2894%
CCn1c(-c2ccccc2)nn(CC(=O)NCCc2c[nH]cn2)c1=O	2.4%	-1.095%

Some entries from above, unchanged:

{"compound": "Cc1cn2c(n1)CCC(NC(=O)c1nc(C)ncc1Cl)C2", "stereo": "stereo unspecified", "TcHisRS": 1.132, "PfKRS1": 9.385}
{"compound": "O=C(NCCO)Nc1c(F)cccc1Oc1ccccc1", "TcHisRS": 2.941, "PfKRS1": 2.161}

The values are deposited in ChEMBL (CHEMBL3988442, “University of Dundee, Small-Polar-MMV Screening Library” (2021)).